These are yes or no findings as the source states them, for the method shown. Some entries that bind do so weakly or less than the wild type.

Chains of the proteins cited; added tags and fusions are not shown. Lines headed by an entry give the natural chain unless they say otherwise; changes in a name come on top. A line that says so, or that is headed by a name, gives the form on record, which may keep a tag or linker.
真核IgE蛋白 (eukaryotically expressed human IgE protein) (P01854, form named): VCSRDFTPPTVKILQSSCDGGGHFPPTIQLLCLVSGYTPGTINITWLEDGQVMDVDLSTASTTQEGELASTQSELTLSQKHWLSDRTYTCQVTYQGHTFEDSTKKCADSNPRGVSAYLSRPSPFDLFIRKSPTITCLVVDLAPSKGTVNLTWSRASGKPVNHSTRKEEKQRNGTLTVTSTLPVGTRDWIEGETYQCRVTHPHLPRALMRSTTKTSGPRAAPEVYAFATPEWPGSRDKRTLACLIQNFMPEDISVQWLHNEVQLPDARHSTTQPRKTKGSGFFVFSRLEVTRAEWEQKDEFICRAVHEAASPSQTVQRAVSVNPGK

Drawing on patent CN111875706A, this text covers binding for two molecules.

This assay deals with 真核IgE蛋白 (eukaryotically expressed human IgE protein) (human) (UniProt P01854). Put plainly: static adsorption: 1 ml agarose immunoadsorbent with 10 ml human plasma spiked with 1500 IU/ml IgE, 40 min; IgE kit before/after.

B1: 蛋白SD4 (单域抗体, SEQ ID NO.4) (VHH, not shown: small tags and cut ends)
VHH: DVQLQESGGGLVQPGGSLRLSCEASGFALDYHSIGWFRQAPGKEREGVSCITTKYGAMYPDSVEGRFTISRDNAENTVYLQMNSLKPEDTAVYYCAAMRLVTSLQSLCLNPARYDYWGQGTQVTVSS
In the case of B1, the binding entry is reported as “binds”.

B2: 蛋白SD3 (单域抗体, SEQ ID NO.3) (VHH, not shown: small tags and cut ends)
VHH: DVQLQESGGGLVQSGGSLTLSCTASGTPLDYYTIGWFRQAPGKEREGVSSIGRLDTRVHYADSVKGRFTISRNNAENTVYLQMNSLKPEDTAIYYCAADRGYSSATPLALGRYIWWGQGTQVTVSS
For the molecule B2, the binding result is recorded as “binds”.
